Patent publication US11465965B2, “Double-headed protease inhibitor” (UBE INDUSTRIES, LTD., priority 2017, dated 2022)
Where a name gives a salt, the structure may show the parent alone. Some of these results come from one statement about several compounds together.

Sequences of proteins named here, by UniProt entry; tags and fusion partners are left off. A change or cut given only in a name is not applied to a line headed by its entry. Residues count along the entry.
UniProt P98073: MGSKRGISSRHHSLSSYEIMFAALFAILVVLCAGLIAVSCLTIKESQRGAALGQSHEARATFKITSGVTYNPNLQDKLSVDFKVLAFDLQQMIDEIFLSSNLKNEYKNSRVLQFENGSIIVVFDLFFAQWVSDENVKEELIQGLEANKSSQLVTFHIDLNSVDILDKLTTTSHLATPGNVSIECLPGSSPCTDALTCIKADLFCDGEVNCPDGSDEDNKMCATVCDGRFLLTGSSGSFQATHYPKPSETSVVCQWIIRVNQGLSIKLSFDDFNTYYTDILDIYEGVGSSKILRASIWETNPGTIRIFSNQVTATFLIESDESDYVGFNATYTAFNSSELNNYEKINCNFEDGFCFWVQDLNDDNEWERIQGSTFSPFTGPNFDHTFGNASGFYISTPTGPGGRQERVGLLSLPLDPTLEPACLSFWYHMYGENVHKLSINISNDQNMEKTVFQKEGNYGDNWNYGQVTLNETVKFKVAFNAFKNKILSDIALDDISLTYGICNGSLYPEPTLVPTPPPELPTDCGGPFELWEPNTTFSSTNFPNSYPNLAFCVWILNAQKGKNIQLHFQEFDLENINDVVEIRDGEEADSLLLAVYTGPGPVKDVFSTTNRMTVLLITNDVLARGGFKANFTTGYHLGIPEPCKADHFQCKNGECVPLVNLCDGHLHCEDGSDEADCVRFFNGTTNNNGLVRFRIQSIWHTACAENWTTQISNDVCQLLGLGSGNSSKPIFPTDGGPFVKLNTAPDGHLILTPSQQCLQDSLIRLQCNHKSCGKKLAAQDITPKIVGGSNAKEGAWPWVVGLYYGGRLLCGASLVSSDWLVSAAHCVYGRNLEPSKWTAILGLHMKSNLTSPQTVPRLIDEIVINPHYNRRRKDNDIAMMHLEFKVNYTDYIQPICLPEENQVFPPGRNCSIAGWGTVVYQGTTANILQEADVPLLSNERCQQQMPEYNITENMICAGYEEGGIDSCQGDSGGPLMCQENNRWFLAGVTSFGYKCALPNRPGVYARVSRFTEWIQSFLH
UniProt P07477, 24-247: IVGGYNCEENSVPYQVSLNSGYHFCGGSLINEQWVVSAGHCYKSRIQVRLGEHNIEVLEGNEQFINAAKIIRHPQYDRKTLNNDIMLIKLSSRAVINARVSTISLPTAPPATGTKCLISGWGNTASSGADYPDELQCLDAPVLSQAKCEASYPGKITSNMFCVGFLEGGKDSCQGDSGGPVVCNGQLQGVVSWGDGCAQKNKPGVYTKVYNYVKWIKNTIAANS

Tests used:
[1] = target: T1, Human recombinant enteropeptidase (Homo sapiens, UniProt P98073); test: Human enteropeptidase inhibition test; assay type: biochemical; conditions: 20 minutes after reaction start
T1 construct: purchased BIO Vision Inc. 7529-50
Experimental: (Test Example 1): Human Enteropeptidase Inhibition Test
Human recombinant enteropeptidase (manufactured by BIO Vision Inc., catalog no.: 7529-50) was diluted with an assay buffer (50 mM tricine (pH8.0), 0.01 W/V % Tween 20, 10 mM CaCl2) to prepare an […] enzyme solution. Then, 5FAM-Abu-Gly-Asp-Asp-Lys-Ile-Val-Gly-Gly-Lys (CPQ2)-Lys-Lys-NH2 (manufactured by CHINESE PEPTIDE COMPANY, purity: 94.5) was diluted with the assay buffer to prepare a 1.5 μM substrate solution. Each test compound was dissolved into DMSO, then diluted with the assay buffer 100 times, and further appropriately diluted with an assay buffer comprising 1% DMSO to prepare each compound solution. 10 μL of the compound solution, 15 μL of the assay buffer, and 50 μL of the substrate solution were added to a 96 well black plate (manufactured by Thermo Fisher Scientific Inc., code no.: 9502867), mixed, then 25 μL of the enzyme solution was added thereto, and mixed to start the reaction. Fluorescence intensities at excitation wavelength 485 nm and fluorescence wavelength 535 nm were measured by using a fluorescence plate reader (Flex station 3) (Test compound addition group). Also, the same reaction as described above except for not adding each test compound was carried out (Test compound non-addition group). Additionally, the same reaction as described above except for not adding each test compound and the enzyme was carried out (Control group). Inhibition rate was calculated by the following equation using fluorescence intensity after 20 minutes of reaction start. Inhibition rate (%)=(1−(fluorescence intensity of Test compound addition group−fluorescence intensity of Control group)÷(fluorescence intensity of Test compound non-addition group−fluorescence intensity of Control group))×100

[2] = Rat pharmacokinetic (PK) test (plasma concentration after oral administration); conditions: male SD rat
[3] = target: T2, Human recombinant trypsin (Homo sapiens, UniProt P07477); test: Human trypsin inhibition test; assay type: biochemical; conditions: 20 minutes after reaction start
T2 construct: purchased Wako Pure Chemical Industries, Ltd. 206-17171
Experimental: (Test Example 2): Human Trypsin Inhibition Test
Human recombinant trypsin (manufactured by Wako Pure Chemical Industries, Ltd., code no.: 206-17171) was diluted with an assay buffer (0.1 M Tris-HCl (pH8.0), 0.15 M NaCl, 10 mM CaCl2, 0.05% Brij35) to prepare a 10 ng/mL enzyme solution. Then, Boc-Phe-Ser-Arg-MCA (manufactured by PEPTIDE INSTITUTE, INC., code no.: 3107-v) was diluted with the assay buffer to prepare a 40 μM substrate solution. Each test compound was dissolved into DMSO, then diluted with the assay buffer 100 times, and further appropriately diluted with an assay buffer comprising 1% DMSO to prepare each compound solution. 10 μL of the compound solution, 15 μL of the assay buffer, and 50 μL of the substrate solution were added to a 96 well black plate (manufactured by Thermo Fisher Scientific Inc., code no.: 9502867), mixed, and then 25 μL of the enzyme solution was added thereto, and mixed to start the reaction. Fluorescence intensities at excitation wavelength 355 nm and fluorescence wavelength of 460 nm were measured by using a fluorescence plate reader (Flex station 3) (Test compound addition group). Also, the same reaction as described above except for not adding each test compound was carried out (Test compound non-addition group). Additionally, the same reaction as described above except for not adding each test compound and the enzyme was carried out (Control group). Inhibition rate was calculated by the following equation using fluorescence intensity after 20 minutes of reaction start. Inhibition rate (%)=(1−(fluorescence intensity of Test compound addition group−fluorescence intensity of Control group)[…](fluorescence intensity of Test compound non-addition group−fluorescence intensity of Control group))×100

[4] = Stability test in disintegration test solution 1 (pH1.2) and disintegration test solution 2 (pH6.8); assay type: physicochemical; conditions: after 20 minutes; disintegration test solution 1 (pH1.2) and 2 (pH6.8); 10 μM
HFD-fed mouse = test: Fecal protein concentration-increasing test by single administration using HFD-fed mouse; assay type: in vivo; conditions: HFD-fed mice, single oral dose 30 mg/kg, vs vehicle group
Excerpt: (Test Example 3): Fecal Protein Concentration-Increasing Test by Single Administration Using HFD-Fed Mouse
High fat diet-fed (HFD-fed) mice (D-12492 diet, male, ICR, 6 week old) were orally administered with a 0.5 W/V % methylcellulose suspension comprising each test compound (Compound administration group, 4 or 5 mice/group) or a 0.5 W/V % methylcellulose suspension (Compound non-administration group (Vehicle group), 5, 6, or 7 mice/group), and whole feces of the day were collected. Dried feces were dissolved into a 0.5N aqueous sodium hydroxide solution, followed by centrifugation at 3500 rpm. Then each protein concentration in the resulting supernatant was determined (Lowry method), and the ratio for an increase of protein concentration in feces was calculated by the following equation using the protein concentration in feces contained in 1 g of feces (mg/g feces). Ratio for an increase of protein concentration in feces−(average protein concentration in feces of Compound administration group)[…](average protein concentration in feces of Compound non-administration group)

DIO mouse = test: Anti-obesity effect test using DIO mouse; assay type: in vivo; conditions: DIO mice, oral 100 mg/kg once daily for 2 weeks, vs vehicle group
Experimental: (Test Example 4): Anti-Obesity Effect Test Using DIO Mouse
Diet-induced obesity (DIO) mice (D-12492 diet, male, C57BL-DIO, 26 to 28-week old) were orally administered with a 0.5 W/V % methylcellulose suspension comprising each test compound (Compound administration group, 5 or 6 mice/group) or a 0.5 W/V % methylcellulose suspension (Compound non-administration group (Vehicle group), 6 mice/group) once daily for 2 weeks. Weight loss rate was calculated by the following equation. Weight loss rate (%) of each Compound administration group−(1−average weight at the last day of the test of each Compound administration group/average weight at the last day of the test of Vehicle group)×100

| Compound | Inhibition rate (enteropeptidase) ([1]; compound concentration 1 nM) [%] | Inhibition rate (enteropeptidase) ([1]; compound concentration 10 nM) [%] | Inhibition rate (enteropeptidase) ([1]; compound concentration 100 nM) [%] | AUCall ([2]; 10 mg/kg) [ng·h/mL] | Inhibition rate (trypsin) ([3]; compound concentration 1 nM) [%] | Inhibition rate (trypsin) ([3]; compound concentration 10 nM) [%] | Inhibition rate (trypsin) ([3]; compound concentration 100 nM) [%] | Residual rate [4] [%] | Ratio for an increase of protein concentration in feces (HFD-fed mouse) [fold] | Weight loss rate (DIO mouse) [%] | AUCall ([2]; 9 mg/kg) [ng·h/mL] |
| --- | --- | --- | --- | --- | --- | --- | --- | --- | --- | --- | --- |
| (2S,2′S)-2,2′-(pentane-1,5-diylbis((N-(4-((4-guanidinobenzoyl oxy)benzyl)sulfamoyl)azanediyl))disuccinic acid [9-(b)] | ≥ 50 | ≥ 50 | ≥ 50 | ≤ 100 | ≥ 50 | ≥ 50 | ≥ 50 | ≥ 95 | ≥ 1.3 | ≥ 4 |  |
| N=C(N)Nc1ccc(C(=O)Oc2ccc(CNS(=O)(=O)N(CCOCCOCCOCCOCCOCCN([C@@H](CC(=O)O)C(=O)O)S(=O)(=O)NCc3ccc(OC(=O)c4ccc(NC(=N)N)cc4)cc3)[C@@H](CC(=O)O)C(=O)O)cc2)cc1 [5-(b), (2S,22S)-3,21-bis(N-(4-((4-guanidinobenzoyl)oxy)benzyl)sulfamoyl)-6,9,12,15,18-pentaoxa-3,21-diazatricosane-1,2,22,23-tetracarboxylic acid trifluoroacetate] |  |  |  |  |  |  |  | ≥ 95 |  |  |  |
| (3S,6S,25S,28S)-6,25-bis(carboxymethyl)-3,28-bis((((4-((4-guanidinobenzoyl)oxybenzyl)oxy)carbonyl)amino)-4,7,24,27-tetraoxo-11,14,17,20-tetraoxa-5,8,23,26-tetraazatriacontane-1,30-dioic acid [12-(c)] |  | ≥ 50 | ≥ 50 |  | ≥ 50 | ≥ 50 | ≥ 50 |  | ≥ 1.3 |  | ≤ 100 |
